Assay results reported in patent US20200354430A1 (OPKO BIOLOGICS, published 2020).
No constants are given. Whether binding was seen depends on the method and setting. Some entries that bind do so weakly or less than the wild type.

Amino acid sequences for entries named in this document (tags omitted). Residues count along the entry.
UniProt P08709, residues 61-466: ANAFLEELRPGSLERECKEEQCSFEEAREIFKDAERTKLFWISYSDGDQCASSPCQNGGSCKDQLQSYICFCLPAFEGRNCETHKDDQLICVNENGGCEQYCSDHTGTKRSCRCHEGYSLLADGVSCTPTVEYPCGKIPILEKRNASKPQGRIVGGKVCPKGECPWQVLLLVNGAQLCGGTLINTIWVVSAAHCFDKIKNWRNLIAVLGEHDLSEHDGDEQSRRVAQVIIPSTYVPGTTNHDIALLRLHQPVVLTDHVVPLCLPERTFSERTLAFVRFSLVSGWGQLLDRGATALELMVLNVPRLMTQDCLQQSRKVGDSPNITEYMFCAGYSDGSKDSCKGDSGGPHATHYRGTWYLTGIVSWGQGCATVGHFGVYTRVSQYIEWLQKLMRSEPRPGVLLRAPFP
UniProt P00742, residues 41-488: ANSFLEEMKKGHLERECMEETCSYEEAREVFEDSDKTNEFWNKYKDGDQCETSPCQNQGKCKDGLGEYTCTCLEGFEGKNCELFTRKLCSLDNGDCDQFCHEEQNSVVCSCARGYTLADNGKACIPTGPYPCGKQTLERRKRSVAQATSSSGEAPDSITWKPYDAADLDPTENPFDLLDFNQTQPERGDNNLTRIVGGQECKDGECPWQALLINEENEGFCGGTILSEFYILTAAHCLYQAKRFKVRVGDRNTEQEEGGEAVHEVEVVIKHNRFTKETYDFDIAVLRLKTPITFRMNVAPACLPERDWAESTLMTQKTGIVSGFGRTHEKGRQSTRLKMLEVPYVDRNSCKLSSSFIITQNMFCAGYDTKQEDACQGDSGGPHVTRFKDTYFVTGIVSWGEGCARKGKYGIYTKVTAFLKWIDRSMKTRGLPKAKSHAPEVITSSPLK

What was measured:
MOD-5000/TF complex = MOD-5000/TF complex (UniProt P08709); experiment: rate of FX activation as a function of FX concentration
[1] = target: MOD-5000 (commercial recombinant hFVIIa, NovoSeven) (UniProt P08709); experiment: rate of FX activation on lipid vesicles without TF as a function of FX concentration

Factor X (FX) (from UniProt P00742 41-488) (enzyme)
binding (MOD-5000/TF complex): binds | binding [1]: binds
